27 compounds from the supplement of paper PMC10735217 can be followed below.

Each structure is given as a SMILES string. Structures can show the parent of a compound that is named as a salt. This is one part of the list. Repeats in this data set agree poorly, so a single value says little.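 The human kidney-derived cells carry a stably integrated construct of eight TEAD-binding elements driving luciferase, read by luminescence in a drug-repurposing library screen. A compound counts as a hit when its signal is more than five robust Z scores above the plate mean.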

The subject of this assay is HEK293A TEAD-LUC reporter. The assay is described as follows: TEAD-luciferase reporter activity (YAP activation), robust Z score vs plate; higher = stronger YAP/TEAD activation. The following applies: 24 h.

Turning to `FC(F)OC(F)(F)C(F)Cl` (stereo not drawn) [enflurane], the TEAD-luciferase reporter activity (compound concentration: 200 nM) is inactive: 1.33, the TEAD-luciferase reporter activity (compound concentration: 2 uM) was inactive: -0.144 and the TEAD-luciferase reporter activity (compound concentration: 10 uM) was inactive: -0.24.
For `COc1ccc2[nH]cc(C3=CCNCC3)c2c1` the same measures were inactive: 0.579, inactive: -1.37 and inactive: -0.465.
`CC(=O)OC1CN2CCC1CC2` (stereo not drawn): the TEAD-luciferase reporter activity (compound concentration: 200 nM) was inactive: -0.979, the TEAD-luciferase reporter activity (compound concentration: 2 uM) is inactive: -0.296 and the TEAD-luciferase reporter activity (compound concentration: 10 uM) is inactive: 1.93.
Taken in the same sequence, the figures for `Clc1ccccc1C1=NCc2nncn2-c2sc(Br)cc21` were inactive: -2.81, inactive: -1.68 and inactive: 2.98.
As to `Cc1ccc(NC2=NCCN2)c(Cl)c1` [tolonidine], the TEAD-luciferase reporter activity by setting is: (compound concentration: 200 nM) inactive: -1.32; (compound concentration: 2 uM) inactive: 0.554; (compound concentration: 10 uM) inactive: -0.358.
On to `CC(=O)Oc1cc(O[C@H](C)CCCc2ccccc2)cc2c1C1CC(O)CCC1C(C)N2` (stereo partly drawn) [levonantradol], for which the TEAD-luciferase reporter activity is inactive: 0.693 (compound concentration: 200 nM), inactive: 0.216 (compound concentration: 2 uM) and inactive: 1.21 (compound concentration: 10 uM).
`CC(C)CCN1CCC2(CC1)C(=O)Nc1ccccc12`: the TEAD-luciferase reporter activity (compound concentration: 200 nM) was inactive: 0.114 and the TEAD-luciferase reporter activity (compound concentration: 10 uM) was inactive: 4.42.
For the compound `CCC(=O)c1ccc(N)cc1`, the TEAD-luciferase reporter activity reads like this: (compound concentration: 200 nM) inactive: -0.331; (compound concentration: 2 uM) inactive: -0.34; (compound concentration: 10 uM) inactive: -0.22.
For `CN1CC[C@@]2(C)c3cc(O)ccc3N(C)[C@@H]12` [Eseroline] the same measures were inactive: 0.0497, inactive: -1.41 and inactive: 1.16.
Taken in the same sequence, the figures for `CCC(C)c1cccc(C(C)CC)c1O` (stereo not drawn) were inactive: -0.467, inactive: 0.821 and inactive: -0.383.
For `Cc1c(NC2=NCCN2)ccc2nccnc12` the same measures were inactive: 0.567, inactive: 1.41 and inactive: -0.0718.
As to `CC[C@H]1[C@@H]2CC3[C@@H]4N(C)c5ccccc5[C@]45C[C@@H](C2C5O)N3[C@@H]1O` (stereo partly drawn) [Rauwolfine], the TEAD-luciferase reporter activity runs as follows: (compound concentration: 200 nM) inactive: -0.442; (compound concentration: 2 uM) inactive: 0.363; (compound concentration: 10 uM) inactive: -1.72.
Take `c1ccc(C2(c3ccccc3)CC2C2=NCCN2)cc1` (stereo not drawn) [Cibenzoline succinate]: the TEAD-luciferase reporter activity reads like this: (compound concentration: 200 nM) inactive: -1.68; (compound concentration: 10 uM) inactive: 1.32.
As to `c1ccc(C2(c3ccccc3)CC2C2=NCCN2)cc1` (stereo not drawn) [cibenzoline], under “compound concentration: 2 uM”, the TEAD-luciferase reporter activity was inactive: 0.647.
Consider `Cc1cccc(C)c1Cc1c[nH]cn1`, for which the TEAD-luciferase reporter activity runs as follows: (compound concentration: 200 nM) inactive: -1.33; (compound concentration: 10 uM) inactive: -0.269.
`CCCN1CCC[C@H](c2cccc(C#N)c2)C1`: the TEAD-luciferase reporter activity runs as follows: (compound concentration: 200 nM) inactive: 1.5; (compound concentration: 2 uM) inactive: -0.263; (compound concentration: 10 uM) inactive: 1.55.
Taken in the same sequence, the figures for `CCCCCCCCCC[N+](C)(C)CCCCCCCCCC` were inactive: -0.997, inactive: 1.01 and inactive: -1.25.
For `C=CCC1(CCCC)C(=O)NC(=O)NC1=O` the same measures were inactive: -0.00254, inactive: 1.26 and inactive: 4.71.
Taken in the same sequence, the figures for `CCC(CC1COC(N)=N1)c1ccccc1` (stereo not drawn) were inactive: 0.284, inactive: -0.611 and active: 6.68.
In the case of `CC(C)CC(N)C1(c2ccc(Cl)cc2)CCC1` (single isomer, unassigned; (-)) [(-)-didesmethylsibutramine], the TEAD-luciferase reporter activity runs as follows: (compound concentration: 200 nM) inactive: -0.79; (compound concentration: 2 uM) inactive: 0.00381; (compound concentration: 10 uM) inactive: 0.746.
Regarding `C=CC1CN2CCC1CC2C(O)c1ccnc2ccccc12` (stereo not drawn) [Cinchonine dihydrochloride], the TEAD-luciferase reporter activity reads like this: (compound concentration: 200 nM) inactive: -0.898; (compound concentration: 2 uM) inactive: -0.283; (compound concentration: 10 uM) inactive: 0.588.
Turning to `Clc1cccc(SCCN2CCOCC2)n1` [fopirtoline], the TEAD-luciferase reporter activity is inactive: -0.478 (compound concentration: 200 nM), inactive: 0.548 (compound concentration: 2 uM) and inactive: 0.191 (compound concentration: 10 uM).
In the case of `CC(C)CCON=O`, the TEAD-luciferase reporter activity was inactive: 1.57 (compound concentration: 200 nM), inactive: -0.691 (compound concentration: 2 uM) and inactive: -0.511 (compound concentration: 10 uM).
Taken in the same sequence, the figures for `O=[N+]([O-])c1ccc(Cl)c([N+](=O)[O-])c1` were inactive: -1.06, inactive: -0.121 and inactive: -1.71.
Taken in the same sequence, the figures for `N#Cc1c[nH]cc1-c1cccc2c1OC(F)(F)O2` were inactive: -1.2, inactive: -2.41 and inactive: -0.278.
Turning to `CC(C)C[C@H](NC(=O)[C@H](CO)NC(=O)CNC(=O)[C@H](CC(C)C)NC(=O)[C@H](CCC(=O)O)NC(=O)[C@H](Cc1ccc(O)cc1)NC(=O)[C@H](CO)NC(=O)[C@H](CC(N)=O)NC(=O)[C@H](Cc1ccccc1)NC(=O)[C@H](CO)NC(=O)[C@@H](N)CSSC[C@H](N)C(=O)N[C@@H](Cc1ccc(O)cc1)C(=O)NCC(=O)N[C@@H](CCCNC(=N)N)C(=O)N[C@@H](CCCCN)C(=O)N[C@@H](CCCCN)C(=O)N[C@@H](CCCNC(=N)N)C(=O)N[C@@H](CCCNC(=N)N)C(=O)N[C@@H](CCC(N)=O)C(=O)N[C@@H](CCCNC(=N)N)C(=O)N[C@@H](CCCNC(=N)N)C(=O)N[C@@H](CCCNC(=N)N)C(=O)O)C(=O)O`, the TEAD-luciferase reporter activity is inactive: -1.46 (compound concentration: 200 nM) and inactive: -0.0913 (compound concentration: 10 uM).
Consider `Oc1cccc2cccnc12` [Saloxin], for which the TEAD-luciferase reporter activity (compound concentration: 2 uM) is inactive: -0.662.
